Measurements taken from paper doi:10.1101/2024.06.02.596995.
Results are given in words; binding and its absence hold for the method and conditions named. For part of these data: A result given as binding can be weak or reduced; the word gives no strength. Sequences can lack the tags named with a protein. For part of these data: Binding seen in cells or lysates may run through a third protein.

What was measured:
[1] = target: T1, Armitage WT-Flag (RNAi-resistant) (D. melanogaster) (UniProt Q6J5K9); assay: pull-down
T1 sequence: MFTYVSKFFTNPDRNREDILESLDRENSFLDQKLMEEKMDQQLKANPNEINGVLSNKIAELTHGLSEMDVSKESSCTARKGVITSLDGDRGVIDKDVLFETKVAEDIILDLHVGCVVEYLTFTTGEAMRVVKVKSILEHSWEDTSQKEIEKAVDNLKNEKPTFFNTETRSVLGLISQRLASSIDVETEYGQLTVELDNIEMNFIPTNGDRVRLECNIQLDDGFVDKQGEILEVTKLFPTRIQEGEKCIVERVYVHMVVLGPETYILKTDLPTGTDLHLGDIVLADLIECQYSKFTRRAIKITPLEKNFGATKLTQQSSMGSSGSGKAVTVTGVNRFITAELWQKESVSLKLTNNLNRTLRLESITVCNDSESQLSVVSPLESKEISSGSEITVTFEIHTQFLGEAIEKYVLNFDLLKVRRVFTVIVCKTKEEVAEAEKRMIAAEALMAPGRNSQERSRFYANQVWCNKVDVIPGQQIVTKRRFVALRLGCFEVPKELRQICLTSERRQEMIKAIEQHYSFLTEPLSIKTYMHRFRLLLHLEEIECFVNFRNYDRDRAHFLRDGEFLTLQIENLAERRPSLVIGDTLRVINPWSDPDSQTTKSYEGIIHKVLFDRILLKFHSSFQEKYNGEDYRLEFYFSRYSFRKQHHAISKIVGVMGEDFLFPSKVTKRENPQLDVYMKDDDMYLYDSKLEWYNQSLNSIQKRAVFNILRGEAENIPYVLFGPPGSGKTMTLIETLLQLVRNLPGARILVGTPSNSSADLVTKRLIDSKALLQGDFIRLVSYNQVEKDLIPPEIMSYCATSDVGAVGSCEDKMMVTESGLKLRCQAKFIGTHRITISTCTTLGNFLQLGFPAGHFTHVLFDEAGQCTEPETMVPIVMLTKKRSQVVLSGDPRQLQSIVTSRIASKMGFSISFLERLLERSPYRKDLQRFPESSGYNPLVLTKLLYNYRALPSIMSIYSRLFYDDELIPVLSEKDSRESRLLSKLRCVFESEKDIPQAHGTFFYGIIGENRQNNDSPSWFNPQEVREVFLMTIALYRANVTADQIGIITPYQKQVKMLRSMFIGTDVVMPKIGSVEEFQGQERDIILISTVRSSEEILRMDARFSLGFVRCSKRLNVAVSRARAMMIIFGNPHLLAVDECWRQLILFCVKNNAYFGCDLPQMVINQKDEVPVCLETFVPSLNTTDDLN

[2] = target: T2, Armitage ΔN34-Flag (D. melanogaster) (UniProt Q6J5K9); assay: pull-down
T2 sequence: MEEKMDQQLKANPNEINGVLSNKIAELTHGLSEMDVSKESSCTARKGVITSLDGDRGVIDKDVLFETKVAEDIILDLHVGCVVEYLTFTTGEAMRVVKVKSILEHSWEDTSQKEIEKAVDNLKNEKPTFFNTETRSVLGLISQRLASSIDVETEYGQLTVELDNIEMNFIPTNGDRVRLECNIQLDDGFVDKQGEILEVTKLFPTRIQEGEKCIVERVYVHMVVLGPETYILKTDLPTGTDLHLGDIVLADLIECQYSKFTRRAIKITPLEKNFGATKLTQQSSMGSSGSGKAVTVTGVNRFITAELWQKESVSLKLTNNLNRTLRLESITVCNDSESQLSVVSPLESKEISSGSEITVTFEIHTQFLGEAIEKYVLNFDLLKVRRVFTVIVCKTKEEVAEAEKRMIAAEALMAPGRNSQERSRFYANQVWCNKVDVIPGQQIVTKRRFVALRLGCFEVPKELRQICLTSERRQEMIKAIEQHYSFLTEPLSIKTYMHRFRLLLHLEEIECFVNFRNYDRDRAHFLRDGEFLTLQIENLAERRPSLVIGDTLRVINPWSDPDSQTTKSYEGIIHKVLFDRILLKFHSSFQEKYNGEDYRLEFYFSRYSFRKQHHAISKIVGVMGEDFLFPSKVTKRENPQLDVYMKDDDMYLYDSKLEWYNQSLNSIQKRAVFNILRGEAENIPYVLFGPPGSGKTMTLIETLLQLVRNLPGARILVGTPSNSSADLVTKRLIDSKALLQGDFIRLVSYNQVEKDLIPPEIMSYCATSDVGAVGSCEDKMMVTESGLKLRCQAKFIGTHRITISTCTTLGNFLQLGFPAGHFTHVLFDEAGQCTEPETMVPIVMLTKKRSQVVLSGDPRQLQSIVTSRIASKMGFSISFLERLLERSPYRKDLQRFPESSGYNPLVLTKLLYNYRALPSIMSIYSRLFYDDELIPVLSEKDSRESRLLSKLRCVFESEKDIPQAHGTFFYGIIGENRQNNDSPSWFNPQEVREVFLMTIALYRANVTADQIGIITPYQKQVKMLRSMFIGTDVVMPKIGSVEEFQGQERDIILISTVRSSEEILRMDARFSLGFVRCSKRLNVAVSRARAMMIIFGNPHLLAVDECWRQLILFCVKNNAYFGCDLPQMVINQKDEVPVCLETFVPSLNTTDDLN

[3] = target: T1, Armitage WT-Flag (RNAi-resistant) (D. melanogaster); assay: co-IP

Row | Substance | binding [1] | binding [2] | binding [3]
1 | Daed ΔTM-His (Drosophila (cDNA from OSC RNA)) (domain or fragment) | binds | no binding | –
2 | Daedalus (Daed), endogenous in OSCs (D. melanogaster (endogenous in OSCs)) | – | – | binds
